Patent US20190241651A1
Results are given in words; binding and its absence hold for the method and conditions named. Some entries that bind do so weakly or less than the wild type.

The chains behind the UniProt entries cited, without tags or fusion partners. Residues count along the entry.
UniProt P01225, residues 19-129: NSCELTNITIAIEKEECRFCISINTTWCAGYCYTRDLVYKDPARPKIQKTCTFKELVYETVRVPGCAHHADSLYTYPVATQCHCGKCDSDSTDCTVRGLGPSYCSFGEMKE

Target: human FSHβ (human) (UniProt P01225)
Assay: ELISA

binding: binds
B1: monoclonal anti-FSH antibody Hf2 (antibody, V domains shown)
VH: DVHLQESGPGLVKPSQSLSLTCTVTGFSITSDYAWNWIRQFPGNKLEWMGSIFSSGSINYNPSLKSRISITRDTSRNQFFLQLNSVTTADAGTYYCARGGTGTDYWGQGTTLTVSS
VL: DIQMTQTTSSLSASLGDRVTISCRASQDISNYLSWYQQKPDGTIKLLIYYTSRLHSGVSSRFSGSGSGTDYSLTISNLEQEDFATYFCQQGHTLPPTFGGGTKLEIK
